Measurements: the supplement of paper PMC10849652
The other results are listed elsewhere or left out.

Amino acid sequences for entries named in this document (tags omitted). A change or cut given only in a name is not applied to a line headed by its entry.
UniProt Q8N2K1: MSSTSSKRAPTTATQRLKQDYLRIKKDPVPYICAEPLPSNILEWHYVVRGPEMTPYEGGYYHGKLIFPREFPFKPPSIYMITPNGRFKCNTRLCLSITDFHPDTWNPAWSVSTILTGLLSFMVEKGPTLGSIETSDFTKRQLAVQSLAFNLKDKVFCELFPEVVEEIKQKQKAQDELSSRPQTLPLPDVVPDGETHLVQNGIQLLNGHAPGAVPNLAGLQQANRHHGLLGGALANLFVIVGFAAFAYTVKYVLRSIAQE
UniProt Q96ET8: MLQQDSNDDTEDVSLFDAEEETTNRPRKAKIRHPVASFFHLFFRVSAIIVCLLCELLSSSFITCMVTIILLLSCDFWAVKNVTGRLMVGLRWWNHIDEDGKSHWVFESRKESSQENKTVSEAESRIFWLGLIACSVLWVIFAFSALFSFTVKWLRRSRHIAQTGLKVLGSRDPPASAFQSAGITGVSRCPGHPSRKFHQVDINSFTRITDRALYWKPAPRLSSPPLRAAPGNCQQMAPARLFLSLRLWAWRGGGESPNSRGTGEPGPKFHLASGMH
UniProt Q96N46: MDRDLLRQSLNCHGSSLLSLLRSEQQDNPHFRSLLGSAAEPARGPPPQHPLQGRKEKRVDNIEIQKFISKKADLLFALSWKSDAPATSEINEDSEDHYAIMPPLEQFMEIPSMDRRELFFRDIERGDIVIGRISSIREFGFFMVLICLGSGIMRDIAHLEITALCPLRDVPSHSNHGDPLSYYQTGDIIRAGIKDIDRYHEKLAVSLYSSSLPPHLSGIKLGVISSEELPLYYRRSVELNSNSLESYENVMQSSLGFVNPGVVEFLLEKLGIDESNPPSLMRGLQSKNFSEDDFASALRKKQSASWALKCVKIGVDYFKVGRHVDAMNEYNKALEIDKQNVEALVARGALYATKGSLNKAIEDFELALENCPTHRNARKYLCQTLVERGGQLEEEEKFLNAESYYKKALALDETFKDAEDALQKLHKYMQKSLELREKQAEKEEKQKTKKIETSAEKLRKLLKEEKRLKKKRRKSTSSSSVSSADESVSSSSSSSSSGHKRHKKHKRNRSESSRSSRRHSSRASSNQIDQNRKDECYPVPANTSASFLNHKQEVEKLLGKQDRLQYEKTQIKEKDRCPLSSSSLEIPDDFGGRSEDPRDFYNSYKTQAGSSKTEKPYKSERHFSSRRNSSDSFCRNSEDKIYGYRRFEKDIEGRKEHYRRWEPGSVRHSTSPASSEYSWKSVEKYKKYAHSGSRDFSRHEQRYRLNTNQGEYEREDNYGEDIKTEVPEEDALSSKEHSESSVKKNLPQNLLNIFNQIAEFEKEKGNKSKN
UniProt O14817: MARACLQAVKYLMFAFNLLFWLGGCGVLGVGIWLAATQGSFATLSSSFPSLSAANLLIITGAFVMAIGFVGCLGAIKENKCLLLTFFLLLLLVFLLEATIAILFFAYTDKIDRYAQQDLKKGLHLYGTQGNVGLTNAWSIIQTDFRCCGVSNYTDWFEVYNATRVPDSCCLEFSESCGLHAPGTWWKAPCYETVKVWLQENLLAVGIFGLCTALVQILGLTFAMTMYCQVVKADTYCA
UniProt Q16881, whole entry, looked up: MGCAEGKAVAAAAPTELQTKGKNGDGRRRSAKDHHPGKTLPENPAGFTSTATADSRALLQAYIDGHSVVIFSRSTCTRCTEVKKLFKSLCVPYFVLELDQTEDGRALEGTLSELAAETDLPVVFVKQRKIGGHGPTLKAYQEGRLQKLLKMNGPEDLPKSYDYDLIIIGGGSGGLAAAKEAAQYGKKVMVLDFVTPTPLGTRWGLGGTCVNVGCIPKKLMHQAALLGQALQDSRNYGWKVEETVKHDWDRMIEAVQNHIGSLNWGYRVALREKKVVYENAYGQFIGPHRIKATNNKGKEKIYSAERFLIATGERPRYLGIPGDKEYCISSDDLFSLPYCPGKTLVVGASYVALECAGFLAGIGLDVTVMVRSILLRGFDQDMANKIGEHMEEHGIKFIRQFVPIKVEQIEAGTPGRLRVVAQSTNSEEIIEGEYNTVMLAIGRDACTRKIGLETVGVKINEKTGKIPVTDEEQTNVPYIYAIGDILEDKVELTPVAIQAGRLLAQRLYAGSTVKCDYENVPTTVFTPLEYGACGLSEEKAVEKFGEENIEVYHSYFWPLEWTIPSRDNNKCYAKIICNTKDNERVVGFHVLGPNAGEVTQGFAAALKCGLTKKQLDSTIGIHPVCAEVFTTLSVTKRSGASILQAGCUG
UniProt Q96RT8, whole entry, looked up: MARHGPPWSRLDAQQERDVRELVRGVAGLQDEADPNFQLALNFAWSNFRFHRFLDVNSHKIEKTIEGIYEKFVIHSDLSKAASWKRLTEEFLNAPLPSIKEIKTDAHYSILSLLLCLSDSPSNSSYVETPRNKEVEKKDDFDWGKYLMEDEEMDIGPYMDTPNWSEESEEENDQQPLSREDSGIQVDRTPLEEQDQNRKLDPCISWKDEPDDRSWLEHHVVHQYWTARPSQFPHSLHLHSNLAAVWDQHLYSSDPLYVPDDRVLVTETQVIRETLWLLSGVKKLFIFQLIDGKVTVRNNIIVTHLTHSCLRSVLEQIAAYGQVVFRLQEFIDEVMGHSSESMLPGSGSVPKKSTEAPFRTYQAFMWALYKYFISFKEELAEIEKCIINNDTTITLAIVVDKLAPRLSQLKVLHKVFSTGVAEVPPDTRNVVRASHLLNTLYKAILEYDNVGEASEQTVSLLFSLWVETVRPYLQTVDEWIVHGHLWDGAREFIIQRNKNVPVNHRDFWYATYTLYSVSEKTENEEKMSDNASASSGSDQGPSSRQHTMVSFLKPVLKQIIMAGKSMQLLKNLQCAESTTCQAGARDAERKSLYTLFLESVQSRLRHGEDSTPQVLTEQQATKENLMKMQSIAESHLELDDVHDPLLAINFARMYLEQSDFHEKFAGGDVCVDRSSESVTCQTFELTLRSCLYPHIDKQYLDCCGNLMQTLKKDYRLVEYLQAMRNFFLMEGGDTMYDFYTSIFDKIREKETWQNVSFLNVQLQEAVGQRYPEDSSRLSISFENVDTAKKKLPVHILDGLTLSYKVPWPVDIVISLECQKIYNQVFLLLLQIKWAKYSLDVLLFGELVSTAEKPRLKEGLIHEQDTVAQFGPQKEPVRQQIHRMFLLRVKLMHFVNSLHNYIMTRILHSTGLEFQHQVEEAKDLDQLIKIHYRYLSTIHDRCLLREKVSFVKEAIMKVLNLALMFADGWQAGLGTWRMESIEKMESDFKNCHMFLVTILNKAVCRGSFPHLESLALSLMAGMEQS
UniProt Q6PGP7, whole entry, looked up: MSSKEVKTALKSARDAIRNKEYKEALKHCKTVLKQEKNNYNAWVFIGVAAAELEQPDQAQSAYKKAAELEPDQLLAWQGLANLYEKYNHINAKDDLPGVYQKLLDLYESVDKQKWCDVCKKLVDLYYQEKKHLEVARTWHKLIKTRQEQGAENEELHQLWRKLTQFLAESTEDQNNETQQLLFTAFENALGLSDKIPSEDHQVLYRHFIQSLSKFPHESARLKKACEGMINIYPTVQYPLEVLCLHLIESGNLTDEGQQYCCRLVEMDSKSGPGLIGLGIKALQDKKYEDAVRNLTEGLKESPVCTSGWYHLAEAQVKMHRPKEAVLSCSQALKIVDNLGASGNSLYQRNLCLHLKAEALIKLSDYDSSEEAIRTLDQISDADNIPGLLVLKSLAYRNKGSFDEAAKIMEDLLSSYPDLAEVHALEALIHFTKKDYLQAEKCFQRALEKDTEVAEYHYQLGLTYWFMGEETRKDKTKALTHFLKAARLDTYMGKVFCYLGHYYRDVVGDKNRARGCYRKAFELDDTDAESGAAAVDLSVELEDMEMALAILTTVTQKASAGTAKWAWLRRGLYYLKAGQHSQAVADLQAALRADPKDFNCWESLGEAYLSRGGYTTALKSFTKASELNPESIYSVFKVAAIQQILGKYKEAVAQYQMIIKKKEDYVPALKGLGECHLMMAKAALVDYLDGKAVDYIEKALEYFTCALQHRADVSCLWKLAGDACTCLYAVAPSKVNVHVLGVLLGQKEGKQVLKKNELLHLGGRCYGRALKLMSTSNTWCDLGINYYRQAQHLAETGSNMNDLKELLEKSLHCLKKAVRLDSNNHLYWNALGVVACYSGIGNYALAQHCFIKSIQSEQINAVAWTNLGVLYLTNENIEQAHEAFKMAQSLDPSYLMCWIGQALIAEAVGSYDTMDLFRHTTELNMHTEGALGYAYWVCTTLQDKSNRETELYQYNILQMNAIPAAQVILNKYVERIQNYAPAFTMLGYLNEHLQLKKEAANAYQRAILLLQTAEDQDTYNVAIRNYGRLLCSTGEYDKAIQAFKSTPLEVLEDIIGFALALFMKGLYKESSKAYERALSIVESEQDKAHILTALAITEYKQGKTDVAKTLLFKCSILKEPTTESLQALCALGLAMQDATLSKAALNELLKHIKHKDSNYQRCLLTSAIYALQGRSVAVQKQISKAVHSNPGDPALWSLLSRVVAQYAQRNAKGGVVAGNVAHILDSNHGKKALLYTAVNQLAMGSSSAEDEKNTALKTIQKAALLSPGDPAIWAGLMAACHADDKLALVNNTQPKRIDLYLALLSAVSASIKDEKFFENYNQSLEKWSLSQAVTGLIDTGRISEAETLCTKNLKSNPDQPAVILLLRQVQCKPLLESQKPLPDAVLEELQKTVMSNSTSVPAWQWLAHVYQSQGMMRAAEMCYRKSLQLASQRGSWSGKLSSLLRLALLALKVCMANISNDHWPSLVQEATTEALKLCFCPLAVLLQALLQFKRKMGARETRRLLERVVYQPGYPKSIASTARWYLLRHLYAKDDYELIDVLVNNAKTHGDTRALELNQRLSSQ
UniProt Q12999: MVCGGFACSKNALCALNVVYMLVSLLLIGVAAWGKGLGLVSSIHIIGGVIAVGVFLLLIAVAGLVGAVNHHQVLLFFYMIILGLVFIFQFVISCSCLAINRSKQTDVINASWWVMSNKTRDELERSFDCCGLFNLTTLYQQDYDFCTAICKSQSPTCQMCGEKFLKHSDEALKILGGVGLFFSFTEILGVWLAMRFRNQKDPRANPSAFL
UniProt Q16762: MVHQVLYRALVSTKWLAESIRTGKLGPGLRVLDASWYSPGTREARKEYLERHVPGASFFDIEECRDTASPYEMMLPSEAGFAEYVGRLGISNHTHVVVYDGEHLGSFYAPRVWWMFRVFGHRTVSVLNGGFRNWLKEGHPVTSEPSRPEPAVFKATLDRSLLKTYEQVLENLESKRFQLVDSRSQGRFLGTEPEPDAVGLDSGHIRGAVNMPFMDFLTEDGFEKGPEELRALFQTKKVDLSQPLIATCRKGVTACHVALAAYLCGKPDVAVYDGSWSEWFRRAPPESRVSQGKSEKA
UBE2L5, A0A1B0GUS4, UniProt A0A1B0GUS4, whole entry, looked up: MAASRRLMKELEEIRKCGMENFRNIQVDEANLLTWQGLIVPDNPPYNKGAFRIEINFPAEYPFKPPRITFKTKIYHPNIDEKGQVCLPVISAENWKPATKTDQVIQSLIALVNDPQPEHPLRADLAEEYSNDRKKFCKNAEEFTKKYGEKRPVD

Compound: CC[C@@H]1C(=O)N(C)c2cnc(Nc3ccc(C(=O)NC4CCN(C)CC4)cc3OC)nc2N1C1CCCC1
Assay: log2 fold change, soluble protein after heating vs DMSO (PISA); higher = thermal stabilisation; K562 cells, 10 uM, 30 min; active = over 0.2 and 3.5 SD of the protein, either way, in both replicates (recomputed)
Summary of the method: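 Soluble protein was quantified by TMTpro 16plex LC-MS/MS after channel sums were equalised. It was obtained as the supernatant after 21,000xg for 90 min from pooled aliquots of K562 cells (2×10^6 cells/mL, 10 μM compound, 30 min) heated for 3 min across 48°C-58°C and extracted in PBS with 0.5% NP-40 at 4°C. Thermal stability values are relative to control samples and come from duplicates. They are given as log2 fold changes.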

log2 fold change, inactive:
UBE2J2 isoform 3 (UniProt Q8N2K1) -0.07
TVP23C (UniProt Q96ET8) 0.097
TTC14 (UniProt Q96N46) 0.052
TUT7 (UniProt Q5VYS8) 0.048
UBAP2L (UniProt F8W726) 0.077
TSPAN4 (UniProt O14817) 0.288
TXNRD1 isoform 7 (UniProt Q16881) 0.054
TUBGCP5 (UniProt Q96RT8) -0.025
U2AF1L5 (UniProt P0DN76) -0.289
TTC37 (UniProt Q6PGP7) 0.041
TSPAN31 (UniProt Q12999) -0.032
TST (UniProt Q16762) 0.051
TUBA4A (UniProt C9JJQ8) -0.115
UBE2L5, A0A1B0GUS4 0.065

2 records picked at random from those above:
log2 fold change, inactive:
TUT7 (UniProt Q5VYS8) 0.048
UBAP2L (UniProt F8W726) 0.077
